These are yes or no findings as the source states them, for the method shown. In cells and extracts the contact can be indirect. Some results given as binding are weak or reduced against the parent protein; the word gives no strength.
Target: p53 (UniProt P04637)
Assay: co-IP; HEK293T cells transfected with p53, p300 and NDN expression plasmids, with or without LKU4–CM for 24 h; IP with anti-p53 and anti-p300 antibodies, Western blot of the immunoprecipitates

B1: necdin (protein, UniProt P25233 1-325)
chain: MSEQSKDLSDPNFAAEVPDCEMQDSDAVPVGIPPPASLAANLAGPPCAPEGPMAAQQASPPPEERIEDVDPKILQQAAEEGRAHQPQSPARPIPAPPAPAQLVQKAHELMWYVLVKDQKRMVLWFPDMVKEVMGSYKKWCRSILRRTSVILARVFGLHLRLTNLHTMEFALVKALSPEELDRVALNNRMPMTGLLLMILSLIYVKGRGAREGAVWNVLRILGLRPWKKHSTFGDVRKIITEEFVQQNYLKYQRVPHIEPPEYEFFWGSRANREITKMQIMEFLARVFKKDPQAWPSRYREALEQARALREANLAAQAPRSSVSED
For B1, the binding was “binds”.

— PMC12517307
